The results in this text go back to article PMC8481291 (Nature Communications, 2021).

Amino acid sequences for entries named in this document (tags omitted). Residues count along the entry.
UniProt Q7CNU3, residues 23-367: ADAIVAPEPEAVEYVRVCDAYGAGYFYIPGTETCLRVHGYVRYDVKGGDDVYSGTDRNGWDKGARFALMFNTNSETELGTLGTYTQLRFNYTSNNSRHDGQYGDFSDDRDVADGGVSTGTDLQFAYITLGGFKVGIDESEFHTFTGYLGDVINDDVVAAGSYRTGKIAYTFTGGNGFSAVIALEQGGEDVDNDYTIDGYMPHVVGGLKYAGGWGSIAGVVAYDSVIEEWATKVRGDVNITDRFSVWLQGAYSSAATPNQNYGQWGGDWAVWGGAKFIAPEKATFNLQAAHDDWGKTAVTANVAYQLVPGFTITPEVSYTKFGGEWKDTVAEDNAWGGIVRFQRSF

Experiment [1] has as its target Omp2a (Brucella melitensis) (UniProt Q7CNU3). In words: SEC; both purified.
For experiment [2] the target is unchanged. In words: AUC; both purified.

No constants are given. Whether binding was seen depends on the method and setting.

On to Omp2a (from UniProt Q7CNU3 23-367), for which the binding entry in experiment [1] and in experiment [2] was “no binding (condition: Omp2a folded without tES)” in each case.
